Results reported in paper PMC5150223.
These are yes or no findings as the source states them, for the method shown. In cells and extracts the contact can be indirect. These calls come from enrichment with a bait or labelling near it, and not all partners need be listed.

Amino acid sequences for entries named in this document (tags omitted).
UniProt P42224: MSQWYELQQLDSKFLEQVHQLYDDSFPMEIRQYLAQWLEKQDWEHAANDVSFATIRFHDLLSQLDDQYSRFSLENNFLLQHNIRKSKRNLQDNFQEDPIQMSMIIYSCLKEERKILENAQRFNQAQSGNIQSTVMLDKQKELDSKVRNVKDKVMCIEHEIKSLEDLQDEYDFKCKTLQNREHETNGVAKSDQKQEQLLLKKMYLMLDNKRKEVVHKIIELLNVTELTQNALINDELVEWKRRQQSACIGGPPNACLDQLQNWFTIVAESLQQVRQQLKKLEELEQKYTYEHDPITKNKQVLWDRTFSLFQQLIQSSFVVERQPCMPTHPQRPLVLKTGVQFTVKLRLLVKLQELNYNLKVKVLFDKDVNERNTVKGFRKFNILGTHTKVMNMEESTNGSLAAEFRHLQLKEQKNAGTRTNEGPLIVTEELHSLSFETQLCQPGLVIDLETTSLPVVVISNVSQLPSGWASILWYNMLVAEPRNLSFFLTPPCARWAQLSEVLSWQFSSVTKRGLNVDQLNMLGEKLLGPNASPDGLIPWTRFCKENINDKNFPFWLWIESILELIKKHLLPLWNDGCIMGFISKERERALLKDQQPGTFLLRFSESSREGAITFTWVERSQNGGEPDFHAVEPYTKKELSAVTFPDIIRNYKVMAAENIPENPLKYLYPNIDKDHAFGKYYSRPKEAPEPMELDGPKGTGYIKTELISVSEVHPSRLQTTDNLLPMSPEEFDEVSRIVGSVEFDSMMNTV

Biological target: T1, type-I interferon (IFN-α/β) receptor subunit IFNAR2 (human (endogenous in RPE1)) (UniProt P48551)
T1 sequence: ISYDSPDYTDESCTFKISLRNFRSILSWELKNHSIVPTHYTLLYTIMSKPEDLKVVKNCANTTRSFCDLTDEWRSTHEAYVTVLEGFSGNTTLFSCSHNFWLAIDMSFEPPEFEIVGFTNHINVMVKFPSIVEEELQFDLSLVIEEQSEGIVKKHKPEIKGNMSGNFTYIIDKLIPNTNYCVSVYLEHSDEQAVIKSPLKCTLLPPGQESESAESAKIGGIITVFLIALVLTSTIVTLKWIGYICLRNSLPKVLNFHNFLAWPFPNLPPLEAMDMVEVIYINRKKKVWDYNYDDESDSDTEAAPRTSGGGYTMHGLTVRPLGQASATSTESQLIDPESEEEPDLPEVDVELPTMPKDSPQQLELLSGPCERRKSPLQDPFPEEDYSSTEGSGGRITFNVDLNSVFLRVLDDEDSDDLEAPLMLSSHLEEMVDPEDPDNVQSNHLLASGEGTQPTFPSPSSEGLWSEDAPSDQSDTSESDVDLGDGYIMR
Test: affinity purification with mass spectrometry; endogenous IFNAR2 precipitated with anti-IFNAR2 8F11 cross-linked to magnetic beads from RPE1 lysates (1% Tx100); cells with or without IFN-α or IFN-β (1,000 U ml^-1, 10 min, 37 °C), then proteinase K to digest cell surface proteins; eluates deglycosylated, SDS-PAGE, LTQ Orbitrap XL

Substance	binding
VPS26A (from UniProt O75436 1-327)	binds
STAT1 (from UniProt P42224 1-750)	binds
